The supplement of paper PMC3682954
Counter-ions that a name gives are not always drawn. The list shows a part of the results. Single values are uncertain, as repeats are few or missing.

System: RAW 264.7
Test: cell viability (MTT) relative to vehicle control; higher = more viable cells
Settings: stimulus: HMGB1 5 ug/ml, 18 h
[1] = compound concentration: 1 ug/ml

Structure (SMILES)	cell viability (compound concentration: 3 uM)	cell viability [1]
Oc1cc2c(cc1O)C(c1ccccc1)CNCC2 (racemic)	98.4%	–
NC1CCN(c2nc3c(cc2F)c(=O)c(C(=O)O)cn3-c2ccc(F)cc2F)C1 (stereo not given) [Tosufloxacin]	98.4%	–
NC1CCN(c2nc3c(cc2F)c(=O)c(C(=O)O)cn3-c2ccc(F)cc2F)C1 (stereo not given) [Tosufloxacin hydrochloride]	111%	–
NC1CCN(c2nc3c(cc2F)c(=O)c(C(=O)O)cn3-c2ccc(F)cc2F)C1 (stereo not given)	94.5%	–
C=CCCCCCCCCC(=O)[O-].C=CCCCCCCCCC(=O)[O-].[Zn+2]	104%	–
Cc1cc(N)c2ccccc2[n+]1CCCCCCCCCC[n+]1c(C)cc(N)c2ccccc21	98.2%	–
Cc1cc(N)c2ccccc2[n+]1CCCCCCCCCC[n+]1c(C)cc(N)c2ccccc21 [Dequalinium chloride hydrate]	98.2%	–
Cc1cc(N)c2ccccc2[n+]1CCCCCCCCCC[n+]1c(C)cc(N)c2ccccc21 [Dequalinium dichloride]	77%	–
Nc1ccn([C@@H]2CS[C@H](CO)O2)c(=O)n1 [Lamivudine]	116%	–
Nc1ccn([C@@H]2CS[C@H](CO)O2)c(=O)n1	93%	–
Nc1c2c(nc3ccccc13)CCCC2O (stereo not given) [Hydroxytacrine maleate]	106%	–
Nc1c2c(nc3ccccc13)CCCC2O (stereo not given) [Hydroxytacrine]	102%	–
COc1ccccc1OCC(O)COC(N)=O (stereo not given)	109%	–
COc1ccccc1OCC(O)COC(N)=O (stereo not given) [Methocarbamol]	103%	–
CCN(CC)CCCCCCCCOC(=O)c1cc(OC)c(OC)c(OC)c1 [TMB-8 hydrochloride]	108%	–
CO/N=C(\C(=O)N[C@@H]1C(=O)N2C(C(=O)OC(C)OC(C)=O)=C(COC(N)=O)CS[C@H]12)c1ccco1 (stereo not given in full)	110%	–
N#CC(C#N)=C(N)/C(C#N)=C/c1cc(O)c(O)c(O)c1 [Tyrphostin 51]	117%	–
O=C(O)CP(=O)(O)O [Phosphonoacetic acid]	114%	–
Cn1ccc2cc3c(cc21)CCN3C(=O)Nc1cccnc1	113%	–
CC1=C(C2=C(C)C(C(C)C)C3=C(C(=O)C(O)C3O)C2O)C(O)C2=C(C(O)C(O)C2=O)C1C(C)C (stereo not given)	–	102%
CC1(C)[C@@H](OC(=O)CCC(=O)O)CC[C@]2(C)[C@H]3C(=O)C=C4[C@@H]5C[C@@](C)(C(=O)O)CC[C@]5(C)CC[C@@]4(C)[C@]3(C)CC[C@@H]12 [Carbenoxolone disodium salt]	90.4%	–
CC1(C)[C@@H](OC(=O)CCC(=O)O)CC[C@]2(C)[C@H]3C(=O)C=C4[C@@H]5C[C@@](C)(C(=O)O)CC[C@]5(C)CC[C@@]4(C)[C@]3(C)CC[C@@H]12	104%	–
CC(CN(C)C)CN1c2ccccc2Sc2ccccc21 (stereo not given) [Trimeprazine tartrate]	87.6%	–
CC(CN(C)C)CN1c2ccccc2Sc2ccccc21 (stereo not given)	107%	–
C#C[C@]1(O)CC[C@H]2[C@@H]3CCC4=CC(=O)CC[C@@H]4[C@H]3CC[C@@]21CC [Levonorgestrel]	103%	–

Structure (SMILES)	cell viability (compound concentration: 3 uM)	cell viability [1]
C#C[C@]1(O)CC[C@H]2[C@@H]3CCC4=CC(=O)CC[C@@H]4[C@H]3CC[C@@]21CC	99.6%	–
C#C[C@]1(O)CC[C@H]2[C@@H]3CCC4=CC(=O)CC[C@@H]4[C@H]3CC[C@@]21CC [Norgestrel-(-)-D]	118%	–
N[C@@H](Cc1ccc(Cl)cc1)C(=O)O [L-4-Chlorophenylalanine]	–	94.9%
N=C(N)NCCN1CCCCCCC1 [Guanethidine sulfate]	105%	–
N=C(N)NCCN1CCCCCCC1	107%	–
N#C/C(=C\c1ccc(O)c(O)c1)C(=O)NCc1ccccc1 [Tyrphostin AG 490]	111%	–
CC(=O)OCC(=O)[C@H]1CC[C@H]2[C@@H]3CCC4=CC(=O)CC[C@]4(C)[C@H]3CC[C@]12C [deoxycorticosterone acetate]	–	108%
CC(=O)OCC(=O)[C@H]1CC[C@H]2[C@@H]3CCC4=CC(=O)CC[C@]4(C)[C@H]3CC[C@]12C	114%	–
C#CCn1c(=O)c2c(ncn2C)n(C)c1=O [3,7-Dimethyl-1-propargylxanthine]	99%	–
O=C(/C=C/c1ccc(O)c(O)c1)O[C@@H]1C[C@](O)(C(=O)O)C[C@@H](O)[C@H]1O [Chlorogenic Acid]	–	77.3%
COc1ccc2c(=O)cc(-c3ccccc3)oc2c1O	–	83.2%
C=CCOC(Cn1ccnc1)c1ccc(Cl)cc1Cl (stereo not given) [Enilconazole]	82.5%	–
C=CCOC(Cn1ccnc1)c1ccc(Cl)cc1Cl (stereo not given)	113%	–
CC(=O)O[C@H]1CC[C@@]2(C)C(=CC[C@H]3[C@@H]4CC[C@H](C(C)=O)[C@@]4(C)CC[C@@H]32)C1 [Pregnenolone acetate]	–	110%
CC(=O)OCC(=O)[C@@]1(OC(C)=O)[C@@H](C)C[C@H]2[C@@H]3C[C@H](F)C4=CC(=O)C=C[C@]4(C)[C@@]3(F)[C@@H](O)C[C@@]21C [Diflorasone Diacetate]	99%	–
C[C@]1(Cn2ccnn2)[C@H](C(=O)O)N2C(=O)C[C@H]2S1(=O)=O [Tazobactam]	112%	–
O=c1cc(-c2ccccc2)oc2c1ccc1ccccc12 [7,8-Benzoflavone; alpha-Naphthoflavone]	–	99.8%
CC(CN(C)C)C(C)(O)Cc1ccc(Cl)cc1 (stereo not given) [Clobutinol hydrochloride]	109%	–
CC[C@@H](CO)NCCN[C@@H](CC)CO [Ethambutol dihydrochloride]	90.4%	–
CC[C@@H](CO)NCCN[C@@H](CC)CO	109%	–
CN(C)CCC(c1ccc(Br)cc1)c1ccccn1 (single isomer, unassigned; (+)) [(+)-Brompheniramine maleate]	93.5%	–
Nc1nc2c(ncn2[C@H]2C[C@H](O)[C@@H](COP(=O)(O)O)O2)c(=O)[nH]1 [2'-Deoxyguanosine 5'-monophosphate, sodium salt hydrate]	–	101%
CCCOc1ccc(C(=O)OCCN(CC)CC)cc1N [Proparacaine hydrochloride]	96.7%	–
CCN(CC)CCOCCOC(=O)C(CC)(CC)c1ccccc1	106%	–
CC(N)(Cc1ccc(O)c(O)c1)C(=O)O (racemic) [(±)-3-(3,4-dihydroxyphenyl)-2-methyl-DL-alanine]	101%	–

Three entries picked at random from those above:
Structure (SMILES)	cell viability (compound concentration: 3 uM)	cell viability [1]
CC(=O)OCC(=O)[C@H]1CC[C@H]2[C@@H]3CCC4=CC(=O)CC[C@]4(C)[C@H]3CC[C@]12C [deoxycorticosterone acetate]	–	108%
N#CC(C#N)=C(N)/C(C#N)=C/c1cc(O)c(O)c(O)c1 [Tyrphostin 51]	117%	–
Cc1cc(N)c2ccccc2[n+]1CCCCCCCCCC[n+]1c(C)cc(N)c2ccccc21 [Dequalinium chloride hydrate]	98.2%	–
